Source: paper PMC7862700
The entries are a selection whose mix differs from that of the whole data set. For part of these data: At the low end of the ranking the order means little. Some of the results follow. For part of these data: The source does not settle which construct or isoform was used.

Sequences of proteins named here, by UniProt entry; tags and fusion partners are left off. A change or cut given only in a name is not applied to a line headed by its entry.
UniProt P32519: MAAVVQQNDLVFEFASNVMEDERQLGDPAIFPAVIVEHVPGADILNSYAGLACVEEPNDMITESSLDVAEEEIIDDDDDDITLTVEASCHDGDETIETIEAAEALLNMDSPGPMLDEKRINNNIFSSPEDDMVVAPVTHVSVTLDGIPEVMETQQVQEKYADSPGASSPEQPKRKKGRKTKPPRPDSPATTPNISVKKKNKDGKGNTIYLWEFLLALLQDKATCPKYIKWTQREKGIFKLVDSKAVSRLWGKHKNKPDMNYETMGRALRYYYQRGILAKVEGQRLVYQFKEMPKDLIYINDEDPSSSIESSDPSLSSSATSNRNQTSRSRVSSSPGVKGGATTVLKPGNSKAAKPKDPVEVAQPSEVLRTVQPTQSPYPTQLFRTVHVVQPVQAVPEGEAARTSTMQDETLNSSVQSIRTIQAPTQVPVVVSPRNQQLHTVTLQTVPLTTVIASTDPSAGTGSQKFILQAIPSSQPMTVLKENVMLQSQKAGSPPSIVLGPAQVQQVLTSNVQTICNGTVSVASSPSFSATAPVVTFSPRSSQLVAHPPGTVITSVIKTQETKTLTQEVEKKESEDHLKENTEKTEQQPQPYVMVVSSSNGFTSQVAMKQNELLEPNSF
UniProt P50549: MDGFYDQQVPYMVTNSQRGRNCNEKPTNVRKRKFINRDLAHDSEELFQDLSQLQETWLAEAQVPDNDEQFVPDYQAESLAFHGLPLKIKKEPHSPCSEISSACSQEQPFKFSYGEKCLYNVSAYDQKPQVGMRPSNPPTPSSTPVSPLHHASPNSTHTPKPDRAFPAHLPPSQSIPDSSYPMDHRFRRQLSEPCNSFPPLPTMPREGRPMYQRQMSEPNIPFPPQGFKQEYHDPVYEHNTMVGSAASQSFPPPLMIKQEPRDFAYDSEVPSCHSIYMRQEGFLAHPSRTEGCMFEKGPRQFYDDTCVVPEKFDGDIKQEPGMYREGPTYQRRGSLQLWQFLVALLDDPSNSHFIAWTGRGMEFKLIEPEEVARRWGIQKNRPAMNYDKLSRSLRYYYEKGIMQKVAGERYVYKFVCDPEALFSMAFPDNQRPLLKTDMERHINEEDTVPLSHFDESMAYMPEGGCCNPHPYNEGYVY

Tests used:
Experiment in all cases: DAPPL (digital affinity profiling via proximity ligation, sequencing)
Conditions in all cases: 10 mM Tris-HCl pH 7.5, 50 mM NaCl, 1 mM DTT, 4% glycerol, room temperature, 30 min; GST-TFs on glutathione beads, 16-mer random dsDNA library, 0.1% …; high values mean tight binding; double strand, one strand shown; scale: fold enrichment (6-mer frequency, TF over GST control)
ELK4 = target: T1, ELK4 (UniProt P28324-2)
T1 sequence: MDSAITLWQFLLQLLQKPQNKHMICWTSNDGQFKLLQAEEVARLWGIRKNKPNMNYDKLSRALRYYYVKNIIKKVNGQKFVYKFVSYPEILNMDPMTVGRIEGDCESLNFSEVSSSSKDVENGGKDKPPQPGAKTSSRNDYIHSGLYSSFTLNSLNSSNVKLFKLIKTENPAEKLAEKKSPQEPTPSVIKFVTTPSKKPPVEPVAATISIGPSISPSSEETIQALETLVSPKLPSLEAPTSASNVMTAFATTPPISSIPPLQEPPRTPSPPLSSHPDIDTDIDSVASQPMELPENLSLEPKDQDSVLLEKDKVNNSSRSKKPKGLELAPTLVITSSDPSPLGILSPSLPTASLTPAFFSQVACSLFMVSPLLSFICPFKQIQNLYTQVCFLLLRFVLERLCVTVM

ETV4 = target: T2, ETV4 (UniProt P43268)
T2 sequence: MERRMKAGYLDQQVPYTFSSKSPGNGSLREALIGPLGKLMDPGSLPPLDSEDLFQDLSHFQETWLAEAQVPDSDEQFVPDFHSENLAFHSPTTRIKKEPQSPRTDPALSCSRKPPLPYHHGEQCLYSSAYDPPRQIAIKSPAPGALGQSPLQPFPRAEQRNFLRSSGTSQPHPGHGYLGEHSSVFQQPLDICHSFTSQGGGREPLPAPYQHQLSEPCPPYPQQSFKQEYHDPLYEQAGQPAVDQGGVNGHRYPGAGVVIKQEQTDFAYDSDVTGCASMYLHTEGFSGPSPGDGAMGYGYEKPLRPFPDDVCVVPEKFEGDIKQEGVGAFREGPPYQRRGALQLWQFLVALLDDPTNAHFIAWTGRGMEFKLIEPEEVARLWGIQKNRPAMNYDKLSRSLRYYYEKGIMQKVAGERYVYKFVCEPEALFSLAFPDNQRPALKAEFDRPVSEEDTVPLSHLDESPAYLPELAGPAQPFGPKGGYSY

ERG = target: T3, ERG (UniProt P11308)
T3 sequence: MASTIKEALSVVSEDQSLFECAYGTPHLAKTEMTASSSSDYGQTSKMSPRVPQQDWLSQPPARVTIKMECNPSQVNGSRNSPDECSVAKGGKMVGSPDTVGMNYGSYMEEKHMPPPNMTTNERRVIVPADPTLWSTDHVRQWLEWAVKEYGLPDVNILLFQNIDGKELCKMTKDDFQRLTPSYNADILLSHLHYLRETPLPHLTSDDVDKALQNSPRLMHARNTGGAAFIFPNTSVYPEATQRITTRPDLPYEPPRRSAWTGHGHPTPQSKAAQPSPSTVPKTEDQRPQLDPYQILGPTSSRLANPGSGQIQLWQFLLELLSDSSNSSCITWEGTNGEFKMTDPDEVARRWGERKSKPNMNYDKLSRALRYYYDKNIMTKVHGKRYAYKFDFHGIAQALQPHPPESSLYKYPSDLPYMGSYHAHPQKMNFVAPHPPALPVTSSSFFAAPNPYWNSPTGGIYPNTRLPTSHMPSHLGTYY

ELF1 = ELF1 (UniProt P32519)
ERF = target: T4, ERF (UniProt P50548)
T4 sequence: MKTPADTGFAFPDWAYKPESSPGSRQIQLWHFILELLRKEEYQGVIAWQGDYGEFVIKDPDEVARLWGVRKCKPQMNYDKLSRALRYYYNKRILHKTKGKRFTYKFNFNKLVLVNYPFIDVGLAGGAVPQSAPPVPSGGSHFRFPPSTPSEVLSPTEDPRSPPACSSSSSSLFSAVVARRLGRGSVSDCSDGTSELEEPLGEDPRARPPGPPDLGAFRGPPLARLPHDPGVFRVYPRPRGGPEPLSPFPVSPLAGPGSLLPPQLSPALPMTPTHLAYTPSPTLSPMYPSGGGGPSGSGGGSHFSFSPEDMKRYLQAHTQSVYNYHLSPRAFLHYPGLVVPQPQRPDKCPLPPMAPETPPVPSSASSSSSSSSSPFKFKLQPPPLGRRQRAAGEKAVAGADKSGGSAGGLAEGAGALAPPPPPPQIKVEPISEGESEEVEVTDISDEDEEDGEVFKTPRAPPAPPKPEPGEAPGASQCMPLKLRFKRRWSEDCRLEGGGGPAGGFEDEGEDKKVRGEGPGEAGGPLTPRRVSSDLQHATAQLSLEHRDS

ETV1 = ETV1 (UniProt P50549)

Q: How did the binding signal (ELK4) turn out when ACATTA was run?
A: 1.18

Q: And the binding signal (ETV4)?
A: 1.22

Q: For TGCGAT, which binding signal (ELK4) is on record?
A: 1.2

Q: And the binding signal (ETV4)?
A: 1.24

Q: With TCTCGA as the sequence, how does the binding signal (ELK4) read?
A: 1.46

Q: And the binding signal (ETV4)?
A: 1.38

Q: With ATGGCT as the sequence, how does the binding signal (ELK4) read?
A: 1.34

Q: What about the binding signal (ETV4) of the same sequence?
A: 1.41

Q: ATCCCC was tested. Which binding signal (ERG) did it give?
A: 1.52

Q: And the binding signal (ELF1)?
A: 1.5

Q: What about the binding signal (ELK4) of the same sequence?
A: 1.44

Q: What about the binding signal (ETV4) of the same sequence?
A: 1.44

Q: What does the source list for CCGAAG?
A: binding signal (ERG): 0.977; binding signal (ELK4): 1.2; binding signal (ETV4): 1.06; binding signal (ERF): 1.16

Q: Which results are given for CTCAAT?
A: binding signal (ELK4): 1.3; binding signal (ETV4): 1.29; binding signal (ETV1): 1.27

Q: With TAAAAT as the sequence, how does the binding signal (ERG) read?
A: 1.19

Q: And the binding signal (ELF1)?
A: 1.24

Q: What about the binding signal (ELK4) of the same sequence?
A: 1.2

Q: What about the binding signal (ETV4) of the same sequence?
A: 1.2

Q: Which results are given for TAAACG?
A: binding signal (ERG): 1.09; binding signal (ELK4): 1.2; binding signal (ETV4): 1.11; binding signal (ETV1): 1.13

Q: What does the source list for GAAGCT?
A: binding signal (ERG): 1.64; binding signal (ELK4): 1.69; binding signal (ETV4): 1.54

Q: For TGTGCT, which binding signal (ERG) is on record?
A: 1.23

Q: What about the binding signal (ELK4) of the same sequence?
A: 1.17

Q: And the binding signal (ETV4)?
A: 1.31

Q: And the binding signal (ERF)?
A: 1.19

Q: Which results are given for CATGCT?
A: binding signal (ELK4): 1.3; binding signal (ETV4): 1.22; binding signal (ETV1): 1.19

Q: Which binding signal (ELK4) does the source give for AAGAAA here?
A: 1.18

Q: And the binding signal (ETV4)?
A: 1.04

Q: What about the binding signal (ETV1) of the same sequence?
A: 1.2

Q: Which results are given for GAATCT?
A: binding signal (ERG): 1.04; binding signal (ELK4): 1.08; binding signal (ETV4): 1.07; binding signal (ETV1): 1.08

Q: How did the binding signal (ELK4) turn out when AACATC was run?
A: 1.41

Q: And the binding signal (ETV4)?
A: 1.44

Q: And the binding signal (ETV1)?
A: 1.43

Q: What does the source list for TCATTC?
A: binding signal (ERG): 1.27; binding signal (ELK4): 1.34; binding signal (ETV4): 1.23

Q: With ATGGAC as the sequence, how does the binding signal (ERG) read?
A: 1.16

Q: And the binding signal (ELK4)?
A: 1.17

Q: What about the binding signal (ETV4) of the same sequence?
A: 1.21

Q: What does the source list for CTTACG?
A: binding signal (ELK4): 0.867; binding signal (ETV4): 1.05; binding signal (ETV1): 0.977

Q: What does the source list for CTCTTG?
A: binding signal (ELK4): 1.52; binding signal (ETV4): 1.4; binding signal (ETV1): 1.41

Q: Which results are given for ATGACA?
A: binding signal (ERG): 1.32; binding signal (ELK4): 1.19; binding signal (ETV4): 1.34; binding signal (ETV1): 1.28

Q: Which results are given for TGTCTC?
A: binding signal (ERG): 1.23; binding signal (ELK4): 1.11; binding signal (ETV4): 1.33

Q: With GCACTT as the sequence, how does the binding signal (ERG) read?
A: 1.93

Q: What about the binding signal (ELK4) of the same sequence?
A: 1.62

Q: What about the binding signal (ETV4) of the same sequence?
A: 1.95

Q: And the binding signal (ETV1)?
A: 1.86

Q: What does the source list for TACGAA?
A: binding signal (ERG): 1.23; binding signal (ELK4): 1.23; binding signal (ETV4): 1.32; binding signal (ETV1): 1.24

Q: Which binding signal (ERG) does the source give for TCCCAC here?
A: 1.37

Q: What about the binding signal (ELK4) of the same sequence?
A: 1.34

Q: And the binding signal (ETV4)?
A: 1.39

Q: And the binding signal (ETV1)?
A: 1.34

Q: What does the source list for ATCATC?
A: binding signal (ERG): 1.17; binding signal (ELF1): 1.25; binding signal (ELK4): 1.31; binding signal (ETV4): 1.18

Q: How did the binding signal (ERG) turn out when TCGCAC was run?
A: 1.07

Q: What about the binding signal (ELK4) of the same sequence?
A: 1.08

Q: And the binding signal (ETV4)?
A: 1.03

Q: What does the source list for GAAAGA?
A: binding signal (ERG): 1.02; binding signal (ELK4): 1.01; binding signal (ETV4): 0.933; binding signal (ERF): 0.959

Q: With TTGCGC as the sequence, how does the binding signal (ERG) read?
A: 1.02

Q: What about the binding signal (ELK4) of the same sequence?
A: 0.955

Q: What about the binding signal (ETV4) of the same sequence?
A: 1.04

Q: What does the source list for TAAGAT?
A: binding signal (ERG): 1.21; binding signal (ELK4): 1.29; binding signal (ETV4): 1.2; binding signal (ETV1): 1.28

Q: Which binding signal (ERG) does the source give for ATGATA here?
A: 1.26

Q: What about the binding signal (ELK4) of the same sequence?
A: 1.27

Q: What about the binding signal (ETV4) of the same sequence?
A: 1.22

Q: Which results are given for TTACTC?
A: binding signal (ELK4): 1.34; binding signal (ETV4): 1.32; binding signal (ETV1): 1.32

Q: For CTTTTC, which binding signal (ERG) is on record?
A: 1.43

Q: What about the binding signal (ELK4) of the same sequence?
A: 1.49

Q: What about the binding signal (ETV4) of the same sequence?
A: 1.39

Q: And the binding signal (ERF)?
A: 1.33

Q: Which results are given for AACCCA?
A: binding signal (ERG): 1.06; binding signal (ELK4): 1.08; binding signal (ETV4): 1.07; binding signal (ETV1): 0.99

Q: Which binding signal (ERG) does the source give for AACTGC here?
A: 1.32

Q: What about the binding signal (ELK4) of the same sequence?
A: 1.33

Q: And the binding signal (ETV4)?
A: 1.32

Q: And the binding signal (ERF)?
A: 1.22

Q: Which binding signal (ERG) does the source give for ATCTTT here?
A: 1.21

Q: And the binding signal (ELK4)?
A: 1.29

Q: And the binding signal (ETV4)?
A: 1.17

Q: How did the binding signal (ERG) turn out when CTCATG was run?
A: 1.21

Q: What about the binding signal (ELK4) of the same sequence?
A: 1.28

Q: What about the binding signal (ETV4) of the same sequence?
A: 1.24

Q: What about the binding signal (ERF) of the same sequence?
A: 1.18

Q: With TCTAAG as the sequence, how does the binding signal (ELK4) read?
A: 1.2

Q: What about the binding signal (ETV4) of the same sequence?
A: 1.18

Q: And the binding signal (ETV1)?
A: 1.25

Q: CGACTT was tested. Which binding signal (ERG) did it give?
A: 1.84

Q: What about the binding signal (ELF1) of the same sequence?
A: 1.69

Q: What about the binding signal (ELK4) of the same sequence?
A: 1.97

Q: And the binding signal (ETV4)?
A: 1.77

Q: For TAATGT, which binding signal (ELK4) is on record?
A: 1.19

Q: And the binding signal (ETV4)?
A: 1.1

Q: And the binding signal (ETV1)?
A: 1.16

Q: With GCTATA as the sequence, how does the binding signal (ERG) read?
A: 1.16

Q: What about the binding signal (ELF1) of the same sequence?
A: 1.19

Q: What about the binding signal (ELK4) of the same sequence?
A: 1.18

Q: And the binding signal (ETV4)?
A: 1.11

Q: And the binding signal (ERF)?
A: 1.16

Q: Which binding signal (ELK4) does the source give for CTCTAA here?
A: 1.22

Q: What about the binding signal (ETV4) of the same sequence?
A: 1.28

Q: What about the binding signal (ETV1) of the same sequence?
A: 1.32

Q: What does the source list for TGGAAA?
A: binding signal (ERG): 1.11; binding signal (ELK4): 0.993; binding signal (ETV4): 1.06; binding signal (ERF): 1.08

Q: With ATCGTC as the sequence, how does the binding signal (ERG) read?
A: 1.03

Q: What about the binding signal (ELF1) of the same sequence?
A: 1.05

Q: What about the binding signal (ELK4) of the same sequence?
A: 0.908

Q: What about the binding signal (ETV4) of the same sequence?
A: 1.1

Q: Which binding signal (ELK4) does the source give for CGAAGC here?
A: 1.48

Q: What about the binding signal (ETV4) of the same sequence?
A: 1.31

Q: And the binding signal (ETV1)?
A: 1.29

Q: Which results are given for CAATAT?
A: binding signal (ELK4): 1.31; binding signal (ETV4): 1.26; binding signal (ETV1): 1.27

Q: With AAATGG as the sequence, how does the binding signal (ELK4) read?
A: 1.5

Q: What about the binding signal (ETV4) of the same sequence?
A: 1.5

Q: And the binding signal (ETV1)?
A: 1.5
